From article PMC9534957 come the findings set out here.

Amino acid sequences for entries named in this document (tags omitted). A change or cut given only in a name is not applied to a line headed by its entry. Chains listed by the source or under a name are the forms on record and can include a tag or linker. Residues count along the entry.
UniProt Q15437: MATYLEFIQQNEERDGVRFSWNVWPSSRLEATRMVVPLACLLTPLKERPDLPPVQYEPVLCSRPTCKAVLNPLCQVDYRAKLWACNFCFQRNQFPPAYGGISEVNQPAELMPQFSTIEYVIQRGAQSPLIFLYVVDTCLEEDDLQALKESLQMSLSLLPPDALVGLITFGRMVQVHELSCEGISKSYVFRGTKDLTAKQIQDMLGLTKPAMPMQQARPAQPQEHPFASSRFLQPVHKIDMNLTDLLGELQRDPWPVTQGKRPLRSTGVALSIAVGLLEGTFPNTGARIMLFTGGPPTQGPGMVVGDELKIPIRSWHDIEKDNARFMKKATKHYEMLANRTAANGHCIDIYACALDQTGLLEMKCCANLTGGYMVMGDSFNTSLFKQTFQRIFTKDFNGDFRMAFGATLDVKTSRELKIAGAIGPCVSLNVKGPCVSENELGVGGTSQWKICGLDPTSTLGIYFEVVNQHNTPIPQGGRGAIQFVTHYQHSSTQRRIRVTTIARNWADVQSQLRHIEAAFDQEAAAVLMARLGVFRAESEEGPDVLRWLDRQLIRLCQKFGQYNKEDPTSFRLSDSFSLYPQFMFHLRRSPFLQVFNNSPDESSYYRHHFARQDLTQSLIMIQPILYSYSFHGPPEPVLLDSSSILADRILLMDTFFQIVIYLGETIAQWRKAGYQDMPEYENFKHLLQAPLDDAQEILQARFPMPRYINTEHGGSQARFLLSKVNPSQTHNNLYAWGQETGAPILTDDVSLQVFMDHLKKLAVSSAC
V5-tagged full-length Fzd5 (wild type) (Q13467, residues 27-585): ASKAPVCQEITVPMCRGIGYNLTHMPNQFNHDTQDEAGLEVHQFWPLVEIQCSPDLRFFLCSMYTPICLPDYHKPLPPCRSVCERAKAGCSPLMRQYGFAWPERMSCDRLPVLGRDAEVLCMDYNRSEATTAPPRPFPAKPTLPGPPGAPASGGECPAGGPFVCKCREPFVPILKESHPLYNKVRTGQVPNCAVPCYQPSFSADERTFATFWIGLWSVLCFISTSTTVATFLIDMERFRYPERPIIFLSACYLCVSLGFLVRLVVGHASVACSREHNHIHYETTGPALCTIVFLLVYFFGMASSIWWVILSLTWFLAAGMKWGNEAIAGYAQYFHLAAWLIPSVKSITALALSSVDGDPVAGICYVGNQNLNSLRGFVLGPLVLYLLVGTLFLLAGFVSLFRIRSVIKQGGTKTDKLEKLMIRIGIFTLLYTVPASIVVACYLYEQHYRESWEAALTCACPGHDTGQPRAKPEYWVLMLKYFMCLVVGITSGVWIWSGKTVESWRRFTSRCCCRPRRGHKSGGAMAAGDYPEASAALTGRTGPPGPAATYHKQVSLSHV
V5-tagged Fzd5 I199A (Q13467, form named): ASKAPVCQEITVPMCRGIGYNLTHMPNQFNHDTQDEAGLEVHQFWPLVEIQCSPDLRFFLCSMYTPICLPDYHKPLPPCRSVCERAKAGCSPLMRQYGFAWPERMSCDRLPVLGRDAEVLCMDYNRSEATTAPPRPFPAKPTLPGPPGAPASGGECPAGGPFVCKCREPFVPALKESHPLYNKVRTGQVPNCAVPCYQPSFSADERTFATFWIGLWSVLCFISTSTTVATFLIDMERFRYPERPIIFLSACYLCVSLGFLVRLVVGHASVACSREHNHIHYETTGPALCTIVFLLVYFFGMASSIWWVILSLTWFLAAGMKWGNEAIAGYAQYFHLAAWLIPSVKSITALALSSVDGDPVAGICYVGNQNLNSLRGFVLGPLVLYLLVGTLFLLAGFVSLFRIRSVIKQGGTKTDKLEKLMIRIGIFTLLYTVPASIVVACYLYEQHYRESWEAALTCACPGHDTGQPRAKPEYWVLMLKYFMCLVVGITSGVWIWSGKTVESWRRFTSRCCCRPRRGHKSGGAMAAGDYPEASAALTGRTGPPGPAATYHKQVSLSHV
V5-tagged Fzd5 C538A (Q13467, form named): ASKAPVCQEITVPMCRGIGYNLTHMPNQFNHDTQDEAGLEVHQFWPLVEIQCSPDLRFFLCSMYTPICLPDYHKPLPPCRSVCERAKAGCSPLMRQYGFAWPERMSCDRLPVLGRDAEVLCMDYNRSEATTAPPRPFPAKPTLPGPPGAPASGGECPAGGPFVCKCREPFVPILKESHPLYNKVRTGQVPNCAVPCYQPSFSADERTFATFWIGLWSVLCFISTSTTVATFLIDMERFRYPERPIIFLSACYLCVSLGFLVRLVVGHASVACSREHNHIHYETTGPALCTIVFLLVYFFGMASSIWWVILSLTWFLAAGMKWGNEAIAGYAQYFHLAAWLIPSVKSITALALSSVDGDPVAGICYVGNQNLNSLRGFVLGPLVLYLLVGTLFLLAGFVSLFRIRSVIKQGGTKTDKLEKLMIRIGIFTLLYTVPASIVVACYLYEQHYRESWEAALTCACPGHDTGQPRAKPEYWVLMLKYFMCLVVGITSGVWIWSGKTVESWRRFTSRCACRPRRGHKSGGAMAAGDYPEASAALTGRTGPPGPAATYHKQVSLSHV

Results are given in words; binding and its absence hold for the method and conditions named. Binding seen in cells or lysates may run through a third protein. Some entries that bind do so weakly or less than the wild type. For part of these data: Sequences can lack the tags named with a protein.

Common to all, as to assay: co-IP; total cell lysate on α-HA-, α-Flag- or α-V5-agarose at 4 °C overnight, washed 5 times with TBS-T, SDS-PAGE and Western blot; cells also treated with added cholesterol or statin
(A western blot detects proteins with antibodies after separation by electrophoresis.)

The target in one assay is Flag-Sec23B (UniProt Q15437).
In the next assay the target is T1, HA-tagged Shisa3 (UniProt A0PJX4).
T1 sequence: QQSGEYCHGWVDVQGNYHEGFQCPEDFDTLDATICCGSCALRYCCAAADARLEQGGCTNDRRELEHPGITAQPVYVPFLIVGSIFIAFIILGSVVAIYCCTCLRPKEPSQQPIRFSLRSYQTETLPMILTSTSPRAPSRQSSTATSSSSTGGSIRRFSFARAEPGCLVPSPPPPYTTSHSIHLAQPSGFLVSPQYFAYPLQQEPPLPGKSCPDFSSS

A further assay deals with T2, HA-tagged TMEM79 (UniProt Q9BSE2).
T2 sequence: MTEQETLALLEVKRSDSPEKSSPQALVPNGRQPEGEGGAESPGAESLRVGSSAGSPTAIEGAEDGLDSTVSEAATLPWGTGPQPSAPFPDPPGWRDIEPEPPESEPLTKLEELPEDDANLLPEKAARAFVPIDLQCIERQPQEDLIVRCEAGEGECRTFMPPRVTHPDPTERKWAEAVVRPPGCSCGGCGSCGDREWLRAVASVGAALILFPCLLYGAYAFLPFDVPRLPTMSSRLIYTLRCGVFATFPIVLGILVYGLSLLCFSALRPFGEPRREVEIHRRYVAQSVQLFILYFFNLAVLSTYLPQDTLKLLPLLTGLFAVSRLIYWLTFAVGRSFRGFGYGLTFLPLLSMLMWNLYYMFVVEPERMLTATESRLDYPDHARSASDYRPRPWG

Consider “V5-tagged Fzd5 I199A (from UniProt Q13467 27-585) (receptor)”, for which the binding result was “binds weakly” in the assay with Flag-Sec23B, “binds” with HA-tagged Shisa3 and “binds” with HA-tagged TMEM79.

On to “V5-tagged full-length Fzd5 (wild type) (from UniProt Q13467 27-585) (receptor)”, for which the binding result in the assay with Flag-Sec23B, in the assay with HA-tagged Shisa3 and with HA-tagged TMEM79 was “binds” each time.

On to “V5-tagged Fzd5 C538A (from UniProt Q13467 27-585) (receptor)”, for which the binding entry with Flag-Sec23B is “binds weakly”; in the assay with HA-tagged Shisa3, “binds”; with HA-tagged TMEM79, “binds”.
